According to doi:10.1101/779439:
These are yes or no findings as the source states them, for the method shown. Binding calls can cover weak binding; strength is not graded here.

Target: T1, peptide of CD3 zeta chain containing SNID2 (residues 115-135)
T1 sequence (peptide): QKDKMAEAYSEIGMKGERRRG
Test: ITC

“SIVmac239 Nef full core domain (residues 90-263) I123L/L146F double mutant (domain or fragment)” was tested, and the binding was “binds weakly”.
